In patent US20160128944A1, “COATED PARTICLES AND COMPOSITIONS COMPRISING SAME” (VYOME BIOSCIENCES PVT. LTD., priority 2013, published 2016):
At least one compound was matched to its structure with a doubt left.

Tested on: M. furfur
Test: Fatty materials as substrates or food for Malassezia furfur growth on SDA plates
Format: cell-based
Conditions: fatty material at 0.03% in SDA plates; M. furfur visual growth after 48-72 hrs at 32 C

With CCCCCCCCCCCCCCCCCC(=O)OCCOC(=O)CCCCCCCCCCCCCCCCC [EGDS] the Growth was “+”.
